According to PMC5709735, “Real‐time detection of condensin‐driven DNA compaction reveals a multistep binding mechanism” (The EMBO Journal, 2017):
These are yes or no findings as the source states them, for the method shown. Some entries that bind do so weakly or less than the wild type.

Assays:
[1] = biological target: T1, Smc4 Q302L (S. cerevisiae) (UniProt Q12267); experiment: tandem affinity chromatography + SEC; subunits co-overexpressed in budding yeast; complexes purified from interphase cell extracts by the His12 tag on Brn1 and the triple StrepII tag on Smc4, followed by a gel filtration step
T1 sequence: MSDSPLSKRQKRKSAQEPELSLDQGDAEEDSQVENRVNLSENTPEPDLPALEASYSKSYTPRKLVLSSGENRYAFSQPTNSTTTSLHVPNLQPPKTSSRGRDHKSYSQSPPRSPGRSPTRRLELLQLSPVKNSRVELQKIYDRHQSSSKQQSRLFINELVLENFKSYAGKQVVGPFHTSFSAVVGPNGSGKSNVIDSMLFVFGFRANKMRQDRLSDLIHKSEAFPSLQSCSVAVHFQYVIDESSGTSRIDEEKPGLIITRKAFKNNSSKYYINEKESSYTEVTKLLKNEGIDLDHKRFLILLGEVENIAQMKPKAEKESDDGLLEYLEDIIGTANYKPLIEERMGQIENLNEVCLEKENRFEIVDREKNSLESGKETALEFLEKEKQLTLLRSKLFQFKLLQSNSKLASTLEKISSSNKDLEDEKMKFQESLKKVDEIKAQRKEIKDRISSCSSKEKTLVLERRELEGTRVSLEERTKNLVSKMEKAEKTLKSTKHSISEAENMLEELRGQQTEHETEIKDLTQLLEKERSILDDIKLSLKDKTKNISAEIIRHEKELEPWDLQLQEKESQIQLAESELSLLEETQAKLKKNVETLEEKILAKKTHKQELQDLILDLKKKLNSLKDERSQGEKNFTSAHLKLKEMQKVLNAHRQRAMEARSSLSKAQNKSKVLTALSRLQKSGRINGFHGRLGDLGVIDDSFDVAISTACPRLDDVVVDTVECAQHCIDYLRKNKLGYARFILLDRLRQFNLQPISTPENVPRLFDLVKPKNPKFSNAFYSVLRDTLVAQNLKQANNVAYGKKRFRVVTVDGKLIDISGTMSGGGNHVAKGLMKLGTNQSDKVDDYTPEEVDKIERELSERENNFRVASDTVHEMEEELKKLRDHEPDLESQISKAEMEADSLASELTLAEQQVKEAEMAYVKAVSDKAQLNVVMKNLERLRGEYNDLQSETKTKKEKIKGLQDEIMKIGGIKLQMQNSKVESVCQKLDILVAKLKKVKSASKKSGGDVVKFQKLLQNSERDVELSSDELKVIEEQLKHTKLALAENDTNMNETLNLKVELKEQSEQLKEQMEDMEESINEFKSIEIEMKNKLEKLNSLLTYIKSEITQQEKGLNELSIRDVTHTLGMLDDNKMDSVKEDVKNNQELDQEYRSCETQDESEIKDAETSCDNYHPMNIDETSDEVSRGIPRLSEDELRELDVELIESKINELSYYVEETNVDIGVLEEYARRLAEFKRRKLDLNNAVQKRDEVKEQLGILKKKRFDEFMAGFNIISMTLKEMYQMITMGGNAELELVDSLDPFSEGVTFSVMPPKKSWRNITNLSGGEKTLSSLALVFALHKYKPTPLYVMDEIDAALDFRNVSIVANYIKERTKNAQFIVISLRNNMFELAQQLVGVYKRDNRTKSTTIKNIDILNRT

[2] = biological target: T2, Brn1 (S. cerevisiae) (UniProt P38170); experiment: as above
T2 sequence: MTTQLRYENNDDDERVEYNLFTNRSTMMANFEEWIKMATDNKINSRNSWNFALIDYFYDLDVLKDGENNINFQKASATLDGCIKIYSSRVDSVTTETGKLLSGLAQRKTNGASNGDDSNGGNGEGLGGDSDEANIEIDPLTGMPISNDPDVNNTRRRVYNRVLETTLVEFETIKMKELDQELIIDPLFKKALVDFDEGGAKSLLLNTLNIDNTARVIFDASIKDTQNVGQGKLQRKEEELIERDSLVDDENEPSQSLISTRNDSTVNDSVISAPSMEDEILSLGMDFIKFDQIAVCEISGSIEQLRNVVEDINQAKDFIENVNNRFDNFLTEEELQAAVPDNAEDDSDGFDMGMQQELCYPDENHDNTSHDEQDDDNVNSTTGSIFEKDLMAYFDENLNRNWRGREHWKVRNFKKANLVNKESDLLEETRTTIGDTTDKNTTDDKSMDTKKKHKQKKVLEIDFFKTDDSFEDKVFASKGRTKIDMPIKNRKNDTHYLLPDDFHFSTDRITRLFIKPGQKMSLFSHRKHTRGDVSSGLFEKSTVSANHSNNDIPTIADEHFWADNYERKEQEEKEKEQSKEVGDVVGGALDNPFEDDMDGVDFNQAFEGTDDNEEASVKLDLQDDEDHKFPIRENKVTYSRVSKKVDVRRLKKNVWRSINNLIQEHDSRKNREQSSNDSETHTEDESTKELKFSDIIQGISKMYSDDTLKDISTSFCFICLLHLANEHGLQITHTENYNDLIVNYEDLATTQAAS

B1: Ycs4 (protein, UniProt Q06156 1-1176)
chain: MSGFSLSEYLTKFQTTDRESYPRLQDPSRELNVIIDQLAVSPEQIDASPDSLEALIDLCHDFPHLTPKLQTQLSYLISSSLSNLSKDIKANLSSNVNFTEIGGLIPQWKRHLEEYGYLIQVLLTFLQDELHKVSSQSTNLNRSAKNSKNDSANVELFKRDCNQMENLLESITKLLEINLSKIFQTTPEKDLFIGLFTRPLFVLLEIEPVTKVSSLKMFIQRILAMCVKNHGQSSSIQSSLMTNLTYFLHLSVFNAELLKLLNDEYNYPQLTEDILKEISTRVFNAKDTTGPKAISNFLIKLSELSPGIMLRQMNLVITLLNNSSITLRCSVVEACGNIVAELAQDPQTMEHYKQQIAVLIELLEERFQDSNPYVRTKAIQGCSKICDLSSKFNKSKAKFTSLAVRSLQDRSSLVRRNSVKLLSKLLLKHPFKAIHGSQLRLSEWEEYLKGSESQLNSTLKKVESQETLNDTIERSLIEEEVEQDEGQCRTELEGSFNKSAELSRIENEVENINATNTSVLMKLKLMIVYYKDAISFIKEIHKSIELISNLLFSKNRNEVLESMDFLVLADAFDIELSEFGIKKMLHLVWMKGTNDEGTSISVHLIECYKQLFLTAPDSCNMQEKAAHIAKNLINLSIGASIADLASLEQLLGMMYEQKLIDQHVINILWAIYNSASKASMQKEQNVNNRDSEKGFSKEQIHGSIIILGMLSLADNEIALKGLESLLNIGLGAVGLKDLTLCRYSCLALERMVPKRSTIITKAINQELEDVAVKKLYAIIINYTKDNEYYPMCEQALSALFTISSKPDILATDLIREKTMMTFGKPEEEDSILSLEQSSRVVSLSQLLFIVGQVAIKTLVYLEKCEAEFKKRKIEAETRNGKVKNQGADVTNTTQDNGGDKELEMIGGTNEDDFTDAIQFVKENELLFGEKSILGKFCPIVEEIVSNSSRFSDPMLQRTATLCLEKLMCLSSKYCEKSLPLLITVMEKSPDPTIRSNAVLGLGDMAVCFNNLVDENTDYLYRRLHDENLMVQRTCLMTVTFLILAGQVKVKGQLGEMAKCLDNPDQGISDMCRLFFTELASKDNAIYNGFIDIFSNLSSDDLLGKESFKKIIKFLLTFIDKERHQKQLNEKLVGRLRKCETQKQWDDIAFVLNNLPYKNEDVTALLEQGFKVVSAKE
- binding [1]: binds
- binding [2]: binds
